Laboratory results reported in PubChem BioAssay AID651803 (National Center for Advancing Translational Sciences (NCATS), 2012).
The campaign covered roughly 1,200 compounds. Fewer than 10 were called active. Calls follow the shape of the dose curve; as a rule, active = well fitted curve in the direction sought with a large enough effect; inconclusive = small, poorly fitted or top-dose-only effect, or another doubt; inactive = no such curve, though single readings can be large or run the other way. The list shows a part of the results.

The chains behind the UniProt entries cited, without tags or fusion partners. Where a name states a change or a piece, a line headed by the entry shows the natural chain unless it says otherwise.
UniProt P11308: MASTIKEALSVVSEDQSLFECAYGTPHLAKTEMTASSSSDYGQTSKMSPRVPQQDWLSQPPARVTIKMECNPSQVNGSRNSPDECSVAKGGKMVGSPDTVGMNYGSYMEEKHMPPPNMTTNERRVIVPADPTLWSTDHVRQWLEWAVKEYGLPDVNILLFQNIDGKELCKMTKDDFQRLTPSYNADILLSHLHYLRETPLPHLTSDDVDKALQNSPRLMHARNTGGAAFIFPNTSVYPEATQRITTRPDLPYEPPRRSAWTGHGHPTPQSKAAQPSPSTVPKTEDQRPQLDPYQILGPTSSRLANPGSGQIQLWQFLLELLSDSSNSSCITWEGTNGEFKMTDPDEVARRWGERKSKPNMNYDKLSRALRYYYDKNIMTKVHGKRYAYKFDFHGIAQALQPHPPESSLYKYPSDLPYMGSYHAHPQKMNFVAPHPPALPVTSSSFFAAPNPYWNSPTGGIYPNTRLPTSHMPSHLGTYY

What follows are molecules tested against Transcriptional regulator ERG (Homo sapiens) (UniProt P11308) (assay: qHTS for Small Molecule Inhibitors of the ERG Ets/DNA interaction: TR assay against cherry picks). Conditions: ERG Ets domain-DNA fluorescence polarization, Texas red probe; at 154 µM (top of the series).
How it was run: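 Polarization read sequentially for fluorescein (ex 480/em 535 nm) and Texas red (ex 555/em 632 nm) probes, 5 nM and 100 nM solutions, displaced from His-ERG Ets domain (1 uM solution), pH 7.5 Tris/KCl/EDTA/DTT buffer.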
Also: % of control where 0% means no effect.

Activity change, negative = inhibition, inactive:
c1ccc2oc(-c3ccn[nH]3)cc2c1 -4.22%
O=C(O)c1ccccc1Nc1cccc(OCc2ccc3ccccc3n2)c1 -17%
N#Cc1c(C(F)(F)F)cc(-c2cccs2)nc1SCC(=O)Nc1cccc(Br)c1 5.95%
O=C(N/N=C/c1ccc(-c2ccccc2[N+](=O)[O-])o1)[C@H]1C[C@@H]1c1ccccc1 -18.9%
N#C/C(=C\c1cn[nH]c1-c1ccc(Cl)cc1)C(=O)NCc1ccccc1 1.73%
Nc1ccncc1N 1.22%
O=C(C[C@H]1C/C=C\CC[C@@H](Cc2ccc(F)cc2)C(=O)OC[C@H]2CCCN2C1=O)N[C@H](CO)Cc1ccccc1 -10%
CN1C2CCC1CC(NC(=O)CSCc1ccc(Cl)cc1Cl)C2 (centres undefined) 24.2%
CCNc1nc(OCC)nc(N2CCC(Cc3ccccc3)CC2)n1 -16.7%
O=C(NCc1ccccc1)/C(=C/c1ccco1)NC(=O)c1ccco1 2.17%
CCOC(=O)C1(Cc2ccccc2Cl)CCN(S(=O)(=O)N(C)C)CC1 -13.5%
CCCCN1C(N)=NC[C@@H]1CC1CCCCC1 3.53%
CN(C)CCCNc1c2ccccc2nc2ccccc12 -2.02%
Cc1ccc(S(=O)(=O)N2[C@@H](c3ccccc3F)C(C(=O)O)=CC[C@H]2c2cccs2)cc1 4.24%
O=C(OCCOCCN=C1NS(=O)(=O)c2ccccc21)c1ccccc1Br 4.92%
O=C(O)c1ccc(Nc2ncnc3scc(-c4ccccc4)c23)cc1 -2.03%
COc1cccc(CN2CCNC(=O)C2CC(=O)N(Cc2cnn(C)c2)C(C)C)c1 (centres undefined) 0.414%
CC(C[N+](C)(C)C)OC(N)=O (centres undefined) 3.29%
CCN1CCN(c2oc(-c3ccc([N+](=O)[O-])cc3)nc2C#N)CC1 -7.07%
Cc1ccc(C(=O)N2CCN(c3ccc(NC(=O)CSc4ccc(Cl)cc4)cc3)CC2)cc1 -2.73%
O=C(Cn1cnc(S(=O)(=O)N2CCCCC2)c1)N1CCN(c2ccc([N+](=O)[O-])cc2)CC1 4.86%
CCc1n[nH]c(=S)n1/N=C/c1ccc(N(C)c2ccccc2)cc1 1.89%
CN(C)C=NC(=O)c1cc(C(=O)c2ccc(Cl)cc2)c[nH]1 -14.8%
COc1ccc(C(=O)NCC(=O)N2CCN(C(=O)c3ccco3)CC2)cc1 4.13%
Cc1ccc(COC(=O)CCN=C2NS(=O)(=O)c3ccccc32)cc1 1.6%
Cc1ccccc1NC(=O)COc1ccc2oc(=O)cc(C)c2c1 6.08%
CC(=O)NC(CC(=O)Nc1nc(-c2ccccc2)c(C(C)=O)s1)c1ccccc1 (centres undefined) 0.138%
Cc1ccc(C)c(NC(=O)COC(=O)c2cc(=O)c3ccccc3o2)c1 3.93%
CN(C)S(=O)(=O)c1ccc(C(=O)Nc2ccc(Cl)cc2)cc1 9.06%
Cc1ccc(-c2nnn(CC(=O)N(c3ccccc3)C(C(=O)NCC3CCCO3)c3ccc(F)cc3)n2)o1 (centres undefined) -5.14%
Cc1cc(-c2n[nH]c(=S)n2-c2ccc(C)c(C)c2)no1 2.56%
CNC(=S)N/N=C/c1c(C)nn(-c2ccccc2)c1Cl -6.58%
CCOC(=O)N1CCC(NC(=O)c2ccc(CO)c(C(=O)NC3CCN(C(=O)OCC)CC3)c2)CC1 -1.53%
Cn1ncc(Cl)c1C(=O)N1CCN(C23CC4CC(CC(C4)C2)C3)CC1 -12.6%
c1ccc2sc(NN=C3CCCCCC3)nc2c1 0.486%
c1ccc(SSc2ccccc2)cc1 5.81%
COc1ccc(-c2cc3ncc(C(C)=O)c(C)n3n2)cc1 3.21%
OC(CN1CCCCC1)Cn1c2ccccc2c2cc(Br)ccc21 (centres undefined) -14.6%
CCCNc1ncnc2c1cnn2C1CCCCO1 (centres undefined) 0.107%
Nc1ccc2nc3c(=O)n(CCc4ccccc4)c(=O)[nH]c3nc2c1 38.9%
CCNC(=O)COc1ccc(/C=N/NC(=O)c2cccnc2)cc1OC -1.35%
CN(C)S(=O)(=O)c1ccc(C(=O)OCC(=O)NC(=O)NC2CCCC2)cc1 0.67%
CC1=Nc2ccccc2/C1=C/c1nc(-c2ccc(C)s2)oc1O 8.96%
COC(=O)[C@H](Cc1ccccc1)NC(=O)C1(OC(C)=O)CC(OC(C)=O)C(OC(C)=O)C(OC(C)=O)C1 (some centres undefined) -0.524%
COc1ccc(-c2ccc(SCC(=O)NCC3CCCO3)nn2)cc1OC (centres undefined) 5.17%
COC(=O)C(C)Sc1ccc2nnc(CCNS(=O)(=O)c3ccc(C)cc3)n2n1 (centres undefined) 4.39%
NC(=S)c1cc2ccc(O)cc2oc1=O 119%
CN(C(=O)c1ccncc1)C1CCS(=O)(=O)C1 (centres undefined) 3.35%
COc1ccc(C)cc1S(=O)(=O)Nc1cccc(C)c1 5.01%
CCOC(=O)c1c(NC(=O)CSc2nnc(-c3ccc(Cl)cc3)o2)sc2c1CCC2 16.4%
COc1ccc(-c2nc3n(n2)C(c2ccccc2OC)C(C(=O)Nc2cccnc2)=C(C)N3)cc1 (centres undefined) -20.2%
Cc1csc(NC(=O)CSc2nnc(NC(=O)COc3ccc(Cl)cc3)s2)n1 0.404%
O=C(COc1ccccc1Cl)Nc1ccc(CN2CCCCC2)cc1 1.34%
CN(C)C(CNC(=O)/C=C/c1cccc(Cl)c1)c1ccccc1 (centres undefined) -4.23%
COc1cccc(-c2nnc(NC(=O)C(C)C)o2)c1 2.58%
Cc1ccccc1C(=O)NCCCc1ccccc1 2.66%
O=C(CNC(=O)c1ccccc1Cl)OCC(=O)N1CCc2ccccc21 1.84%
CC1CCN(C(=O)COC(=O)c2ccc(=O)n(Cc3ccccc3)n2)CC1 8.59%
CC1=CC(=O)C(C(C)C)=C/C1=C(\c1cc(C(C)C)c(OP(=O)(O)O)cc1C)c1ccccc1C(=O)O -2.93%

Random excerpt: 2 records from the list
Activity change, negative = inhibition, inactive:
Cc1ccc(C)c(NC(=O)COC(=O)c2cc(=O)c3ccccc3o2)c1 3.93%
Nc1ccc2nc3c(=O)n(CCc4ccccc4)c(=O)[nH]c3nc2c1 38.9%
